This experiment has as its target T1, PaPcc1 with C-terminal hexa-histidine tag (Pyrococcus abyssi Pcc1) (Pyrococcus abyssi) (UniProt Q9V1Z9).
T1 sequence: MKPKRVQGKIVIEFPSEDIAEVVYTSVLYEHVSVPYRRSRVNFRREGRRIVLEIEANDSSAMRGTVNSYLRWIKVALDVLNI
The experiment in a line: co-purification (Ni-NTA affinity chromatography, then size exclusion chromatography); E. coli cells expressing untagged subunits and His6-tagged PaPcc1 or PaPcc2 mixed and lysed together; lysate heated at 65 °C; captured by the His6 tag on Ni-NTA at room temperature (20 mM Tris-HCl pH 8, 500 mM NaCl, 5 mM ß-mercaptoethanol, 10% glycerol), then SEC.

Protein sequences, listed by entry. Tags and fused reporters are not part of them.
UniProt Q9UXT7: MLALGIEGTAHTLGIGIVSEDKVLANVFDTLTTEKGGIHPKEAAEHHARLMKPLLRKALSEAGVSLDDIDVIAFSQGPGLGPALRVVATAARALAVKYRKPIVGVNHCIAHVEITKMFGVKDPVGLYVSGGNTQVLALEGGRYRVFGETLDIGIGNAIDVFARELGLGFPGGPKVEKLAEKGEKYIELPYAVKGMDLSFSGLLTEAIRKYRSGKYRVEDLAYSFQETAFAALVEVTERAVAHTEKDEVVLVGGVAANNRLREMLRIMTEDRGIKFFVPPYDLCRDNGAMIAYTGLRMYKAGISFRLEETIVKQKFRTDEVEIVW

The source of these data is paper PMC9889334.

Results are given in words; binding and its absence hold for the method and conditions named. Some results given as binding are weak or reduced against the parent protein; the word gives no strength. Sequences can lack the tags named with a protein.

On to “PaKae1 (Pyrococcus abyssi Kae1) (from UniProt Q9UXT7 1-324) (enzyme)”, for which the binding entry is recorded as “binds”.
